In the supplement of paper PMC3334620:
Over roughly 33,000 sequences, “E-score (-0.5 to 0.5)” has its median near -0.0014; the highest 2% begin near 0.25. This is one part of the list.

Biological target: T1, Cad1 (UniProt P24813)
T1 sequence: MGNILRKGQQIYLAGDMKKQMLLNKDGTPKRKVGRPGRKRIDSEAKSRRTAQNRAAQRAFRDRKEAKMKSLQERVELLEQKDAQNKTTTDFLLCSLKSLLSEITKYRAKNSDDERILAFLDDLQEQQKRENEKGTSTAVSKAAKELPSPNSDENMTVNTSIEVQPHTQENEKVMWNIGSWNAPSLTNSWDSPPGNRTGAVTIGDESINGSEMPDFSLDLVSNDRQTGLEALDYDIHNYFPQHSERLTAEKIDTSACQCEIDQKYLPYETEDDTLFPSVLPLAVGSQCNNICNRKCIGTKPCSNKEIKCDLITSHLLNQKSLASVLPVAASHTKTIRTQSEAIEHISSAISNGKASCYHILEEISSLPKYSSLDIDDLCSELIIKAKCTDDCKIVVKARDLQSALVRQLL
Test: PBM E-score (8-mer binding enrichment) (E-score (-0.5 to 0.5)); higher = stronger / more preferred TF binding
Settings: protein concentration: 100 nM; construct: GST-full length
Description: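 Universal 'all 10-mer' protein binding microarrays (Agilent AMADID 015681) probed with GST-tagged S. cerevisiae TFs (full-length or DBD) made by in vitro transcription/translation (PURExpress), about 100-200 nM. Bound TF was detected with fluorescent anti-GST. Each ungapped 8-mer (which stands for itself and its reverse complement) is scored by the PBM enrichment score (E-score), a modified Wilcoxon-Mann-Whitney statistic from -0.5 to +0.5, computed with the Universal PBM Analysis Suite. Scale: above 0.35 generally sequence-specific binding.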

Sequence | PBM E-score
GGGTTAAC | 0.0259
CCTCTTAC | -0.126
AATCTGAT | 0.106
TGGCTCAA | -0.0222
CATTGCGA | -0.0373
AGTTCCTG | -0.0833
CGTTCAAA | 0.0232
ATCCTTGC | -0.00968
AACCATTG | -0.0153
CAGAATGA | 0.035
GAAATGAA | 0.216
CCAGAACC | -0.0644
CCAAAGCA | -0.0819
AATTACCC | -0.0156
CGACGAAG | -0.0174
GTGTAGAA | -0.138
CTATAGAC | -0.0559
AGCTTGGG | -0.104
GGTTTGCA | -0.00846
CCCTAGCA | -0.141
GCTCTGCC | -0.303
ACTACCTA | 0.0704
AGACCCTC | -0.229
CCCTTAAC | -0.237
ATCACTTC | 0.0521

Sequence | PBM E-score
GGTGTGGA | 0.00718
CATTCACG | -0.0502
GGACCTAA | -0.0962
CGTGGAAG | 0.155
CGCCTTAA | 0.00716
GGGGGACA | -0.326
CGCCGTGA | -0.117
CACGGGGC | -0.076
AGAGGTCA | -0.0772
CGCCATGC | -0.13
ATATAATA | 0.261
GGGTAACA | -0.0678
CACGCGTC | 0.189
CCTAGTAC | -0.0245
CCAGGCAA | -0.0574
CTGCACCA | -0.157
TGCAACCA | -0.096
GTGGTGAA | 0.00074
CCTGGACA | -0.00527
CTCATGCC | -0.0123
ACGACGGG | -0.0583
CTTTTGTA | 0.13
AGCGAGAC | -0.16
GGTTATCA | -0.0747
CTTCTGGC | -0.0168

No new results follow: entries from further up.
Sequence | PBM E-score
AGCGAGAC | -0.16
GGTTATCA | -0.0747
CTTCTGGC | -0.0168

(cont.)

Sequence | PBM E-score
AACTTTGT | 0.0235
ATTCCCCA | 0.0165
CAGTAACC | -0.0321
CACGGGCA | -0.145
AGTGTCAG | -0.0118
ACTCCATC | 0.092
AAGTTAGG | -0.00194
ACTCGTCA | 0.0115
CTTAGGGA | -0.182
CCCCAACG | 0.0976
CGAGTAAC | 0.147
CTAGCACA | -0.212
ACGTGCAT | -0.0352
ACTTCCCC | -0.361
TTCGACAA | 0.0549
CAGCACAC | -0.152
ACAACAAG | 0.0211
GGACCCTA | -0.282
GCTGCGGA | 0.0108
GTGTATCA | 0.146
CGCCGCCG | 0.0125
ATCCAAAG | 0.236
AAGGGGGG | -0.499
ACTAGGGC | -0.101
CAATCGTA | 0.17

Sequence | PBM E-score
GTCCTAAC | -0.145
CACAGCGC | 0.0512
AAAATACG | 0.221
CAATTTCA | 0.0182
CGGTCTAG | -0.125
GGAGGGCA | -0.153
TACTGGAA | 0.0153
CAGTACTG | 0.071
ATGGATGC | 0.0645
ATTAACCG | 0.171
GACTCTAC | -0.0913
AGTTCTTG | 0.063
CACTGCAC | -0.00653
ATGGTAAA | 0.0942
CGGAATAA | 0.0145
AAGATCGT | -0.0494
CTTTTTAC | 0.018
CTCTTTTA | -0.165
AAAGATCC | -0.149
AGGTTCCG | 0.117
CAGGGTCG | -0.117
CCCGGATC | 0.0164
TGCACAAA | 0.0803
AGCCATAC | -0.0685
AATCCTCG | 0.0842

Sequence | PBM E-score
AGTGTCTC | -0.0122
CCGTTTAA | 0.0765
ACCAGTTA | 0.0728
CGCTGTCA | -0.00518
GCTGCCAA | -0.129
ATATGGCA | 0.125
CACCCACG | -0.0164
GATGTTGC | 0.041
ACAGACTC | -0.119
CACACAGG | 0.0713
GTTCTTCA | -0.0376
ATGGCAAC | 0.137
GAATGGTA | -0.0628
GTGTGTGA | 0.0506
AAATCGTA | -0.0277
TCGGCGAA | 0.067
GCTTGCCA | -0.187
AGCGCGCT | 0.152
AGGTATTA | 0.167
ACTACTAG | 0.0646
CTACCGCA | -0.0587
AAGAGGTG | 0.0182
CATAATCG | 0.196
ATTAAGTC | 0.17
CTGAAGTC | -0.0337

Sequence | PBM E-score
ACTCTAAA | 0.101
TTCCTAAA | -0.0718
GCATCACC | -0.0453
GGTGACAA | 0.227
CAATACGC | 0.11
CTGAACGC | -0.00607
CCGGCCGG | 0.0539
AGAAGTCC | -0.187
CCCGGCAA | -0.0126
GCCCTGCC | -0.266
AGGTGAGG | -0.0397
AAGTGCAA | 0.0338
TGTGATAA | 0.203
ATGAATAC | 0.0231
TCGCCCAA | 0.0242
CAACCGGG | -0.0276
TGATTCAA | 0.0493
CACATGGA | -0.0211
CTCATAGA | 0.0924
TATACTGA | 0.288
ACAAAGTG | 0.0733
ACAATCGA | 0.155
ACGCGCGG | 0.136
ATTATTAA | 0.384
TGAAAAAA | 0.157

Sequence | PBM E-score
CACGCCGG | 0.00425
ATGAGGAC | -0.0183
GCCATCGC | -0.0798
CGTTTGCC | 0.121
AGATAATG | 0.169
GGACTCTA | -0.157
ACGGCGAG | -0.0541
GCATACAA | 0.0139
AACGGGAA | 0.00234
ACCACGTG | -0.0522
ACGTGTAG | -0.075
GCATCCCC | -0.268
AATGAAGT | 0.0399
TCAAATGA | -0.0111
ATATCGGG | 0.0906
AGTCACCC | -0.102
CGTCGGTA | -0.197
GAATAAAA | 0.242
ACCAGCGC | 0.00226
GCTTGATA | 0.22
TCCTAAGA | -0.131
ATATGATG | 0.0529

Given as a markdown table: part of the list above.

| Sequence | PBM E-score |
| --- | --- |
| GCATACAA | 0.0139 |
| AATGAAGT | 0.0399 |
| ACCAGCGC | 0.00226 |
